The values that follow come from US6569612B1, “Photographic element containing a high-dye-yield coupler for producing a yellow hue” (Eastman Kodak Company, priority 2001, dated 2003).

Data set [1] is described as follows: Example 2 photothermographic coating evaluation, heated drum processor. To be noted: for Amplification: Drange/(molar laydown/m^2 of coupler); for Amplification / Rel. Amp.: drum 161° C. for 18 s; for Blue Dmax / Drange / Gamma: E-1 emulsion, heated drum 161° C. for 18 s; for Rel. Amp.: relative to CY-1.
Data set [2] can be described thus: Example 1 photothermographic coating evaluation, emulsion E-1, heated platen. Particulars: platen 150 deg C, 20 s; for Rel. Amp.: Amplification for test coupler/Amplification for CY-1; for Amplification: Drange/(molar laydown/m^2 of coupler); for Blue Dmax / Drange / Gamma: E-1 emulsion; for Blue Dmax: CY-1 0.72 mmol/m^2, dye releasing couplers 0.36 mmol/m^2; for Drange: Dmax − Dmin; for Gamma: maximum 2-point contrast.

Data set [3] can be described thus: Example 3 photothermographic coating evaluation, emulsion E2. To be noted: for Amplification: Drange/(molar laydown/m^2 of coupler); for Amplification / Drange / Gamma / Rel. Amp.: Emulsion E2; for Amplification / Rel. Amp.: 161° C. for 18 s; for Blue Dmax: Emulsion E2 (green sensitized); for Blue Dmax / Drange / Gamma: heated drum 161° C. for 18 s; for Rel. Amp.: relative to CY-1.

Data set [4] can be described thus: Example 5 photothermographic coating evaluation. Particulars: for Blue Dmax: Example 5, format as Example 3; for Blue Dmax / Drange / Gamma: heated drum 161° C. for 18 s; for Amplification / Drange / Gamma / Rel. Amp.: Example 5; for Amplification: Drange/(molar laydown/m^2 of coupler); for Rel. Amp.: relative to CY-1.

For the molecule `CCCCCCCCCCCCOC(=O)c1ccc(Cl)c(NC(=O)C(C(=O)c2ccc(OC)cc2)N2C(=O)C(OCC)N(Cc3ccccc3)C2=O)c1` (stereo not drawn) [CY-1], in data set [1], the Amplification is reported as 1103, the “Blue Dmax” value is reported as 0.94, the Drange is 0.79 and the Gamma was determined as 0.69. The “Rel. Amp.” value in data set [1] is on record as “(1.0)”. In addition, in data set [2], the “Rel. Amp.” value is on record as “(1.0)”, the Amplification amounted to 1278, the “Blue Dmax” value is listed as 1.15 and the Drange stood at 0.92. The molecule further gave a Gamma in data set [2] of 0.86. In data set [3], the Amplification was determined as 663, the “Blue Dmax” value is reported as 0.58, the Drange came to 0.48 and the Gamma is listed as 0.33. Besides, in data set [3], the “Rel. Amp.” value is reported as “(1.0)”. Also, in data set [4], the “Blue Dmax” value was found to be 0.59, the Amplification came to 632, the Drange turned out to be 0.46 and the Gamma came out at 0.31. The “Rel. Amp.” value in data set [4] is reported as “(1.0)”.
For the molecule `CCC(C)(C)c1cc(C(C)(C)CC)c2oc(/C(C#N)=C/c3ccc(N(C(=O)OC(C(=O)Nc4cc(CS(=O)(=O)c5ccccc5)ccc4Cl)C(=O)c4ccc(OC)cc4)C4CCCC4)cc3C)nc2c1` (stereo not drawn) [CY-4], in data set [2], the “Rel. Amp.” value is recorded as 1.7, the Amplification turned out to be 2172, the “Blue Dmax” value stood at 0.98 and the Drange was 0.78. In addition, the Gamma in data set [2] is 0.75.
Regarding `CCC(C)(C)c1cc(C(C)(C)CC)c2oc(/C(C#N)=C/c3ccc(N(C(=O)OC(C(=O)Nc4cc(CS(=O)(=O)c5ccc(O)cc5)ccc4Cl)C(=O)c4ccc(OC)cc4)C4CCCC4)cc3C)nc2c1` (stereo not drawn) [CY-5], in data set [2], the “Rel. Amp.” value is 2.0, the Amplification amounted to 2522, the “Blue Dmax” value is on record as 1.18 and the Drange is 0.91. For the same molecule, in data set [2], the Gamma is on record as 0.87.
`CCCCCCCCCCCCOC(=O)c1ccc(Cl)c(NC(=O)C(OC(=O)N(C)c2ccc(/C=C(\C#N)c3nc4cc(C(C)(C)C)ccc4o3)c(C)c2)C(=O)c2ccc(OC)cc2)c1` (stereo not drawn) [CY-7]: in data set [2], the “Rel. Amp.” value was determined as 1.8, the Amplification stood at 2289, the “Blue Dmax” value came out at 1.08 and the Drange worked out at 0.82. In addition, in data set [2], the Gamma was determined as 0.78.
Regarding `CCCCCCCCCCCCNS(=O)(=O)c1ccc(NC(=O)C(OC(=O)N(c2ccc(/C=C(\C#N)c3nc4cc(C(C)(C)C)ccc4o3)c(C)c2)C2CCCC2)C(=O)c2ccc(OC)cc2)c(Cl)c1` (stereo not drawn) [CY-8], in data set [3], the Amplification came to 1442, the “Blue Dmax” value is 0.65, the Drange is 0.52 and the Gamma is 0.32. Further, in data set [3], the “Rel. Amp.” value turned out to be 2.2.
In the case of `CCCCCCCCCCCCCCCCNS(=O)(=O)c1ccc(Cl)c(NC(=O)C(OC(=O)N(CCCCCCCCCCCC)c2ccc(/C=C(\C#N)c3nc4ccccc4o3)c(C)c2)C(=O)c2ccc(OC)cc2)c1` (stereo not drawn) [CY-12], in data set [2], the “Rel. Amp.” value is 2.5, the Amplification was determined as 3236, the “Blue Dmax” value is listed as 1.34 and the Drange is listed as 1.17. Moreover, the Gamma in data set [2] is reported as 1.03. Besides, in data set [4], the “Blue Dmax” value is given as 0.55, the Amplification came to 1153, the Drange turned out to be 0.42 and the Gamma stood at 0.22. Further, the “Rel. Amp.” value in data set [4] worked out at 1.8.
Consider `CCCCCCCCCCCCCCCCNS(=O)(=O)c1ccc(Cl)c(NC(=O)C(OC(=O)N(CCCC)c2ccc(/C=C(\C#N)c3nc4ccccc4o3)c(C)c2)C(=O)c2ccc(OC)cc2)c1` (stereo not drawn) [CY-13], for which, in data set [4], the “Blue Dmax” value is 0.6, the Amplification turned out to be 1222, the Drange came out at 0.44 and the Gamma came out at 0.24. For the same molecule, the “Rel. Amp.” value in data set [4] is recorded as 1.9.
Take `CCCCCCCCCCCCS(=O)(=O)c1ccc(NC(=O)C(OC(=O)N(C)c2ccc(/C=C(\C#N)c3nc4cc(C(C)(C)C)ccc4o3)c(C)c2)C(=O)c2ccccc2)c(Cl)c1` (stereo not drawn) [Coupler Y-1]: in data set [1], the Amplification was 3314, the “Blue Dmax” value was 1.59, the Drange stood at 1.19 and the Gamma worked out at 1.11. In addition, the “Rel. Amp.” value in data set [1] turned out to be 3.0. Moreover, in data set [2], the “Rel. Amp.” value was 3.0, the Amplification is recorded as 3822, the “Blue Dmax” value is reported as 1.89 and the Drange is reported as 1.38. The molecule further yielded a Gamma in data set [2] of 1.32. Moreover, in data set [3], the Amplification amounted to 2353, the “Blue Dmax” value turned out to be 1.06, the Drange stood at 0.85 and the Gamma is 0.6. In data set [3], the “Rel. Amp.” value stood at 3.6. In addition, in data set [4], the “Blue Dmax” value came out at 1.08, the Amplification was 2144, the Drange is on record as 0.77 and the Gamma turned out to be 0.69. In addition, the “Rel. Amp.” value in data set [4] was 3.4.
Regarding `CCCCCCCCCCCCCCCCNS(=O)(=O)c1ccc(Cl)c(NC(=O)C(OC(=O)N(C)c2ccc(/C=C(\C#N)c3nc4cc(C(C)(C)C)ccc4o3)c(C)c2)C(=O)c2ccc(OC)cc2)c1` (stereo not drawn) [Coupler Y-2], in data set [2], the “Rel. Amp.” value is 2.4, the Amplification came out at 3019, the “Blue Dmax” value was 1.30 and the Drange amounted to 1.09. Besides, the Gamma in data set [2] is 1.01.
For `CCCCCCCCCCCCS(=O)(=O)c1ccc(NC(=O)C(OC(=O)N(c2ccc(/C=C(\C#N)c3nc4cc(C(C)(C)C)ccc4o3)c(C)c2)C2CCCC2)C(=O)c2ccccc2)c(Cl)c1` (stereo not drawn) [Coupler Y-3], in data set [1], the Amplification is recorded as 2467, the “Blue Dmax” value came to 1.23, the Drange was determined as 0.89 and the Gamma is listed as 0.80. For the same molecule, the “Rel. Amp.” value in data set [1] amounted to 2.2. Besides, in data set [3], the Amplification was 1889, the “Blue Dmax” value is 0.93, the Drange is 0.68 and the Gamma is 0.62. Also, the “Rel. Amp.” value in data set [3] came to 2.9.
For `COc1ccc(C(=O)C(OC(=O)N(c2ccc(/C=C(\C#N)c3nc4cc(C(C)(C)C)ccc4o3)c(C)c2)C2CCCC2)C(=O)Nc2ccc([N+](=O)[O-])cc2Cl)cc1` (stereo not drawn) [Coupler Y-4], in data set [1], the Amplification is given as 1967, the “Blue Dmax” value came out at 0.86, the Drange came to 0.71 and the Gamma was 0.58. The “Rel. Amp.” value in data set [1] was 1.8.
`CCC(C)(C)c1cc(C(C)(C)CC)c2oc(/C(C#N)=C/c3ccc(N(C(=O)OC(C(=O)Nc4ccc([N+](=O)[O-])cc4Cl)C(=O)c4ccccc4)C4CCCC4)cc3C)nc2c1` (stereo not drawn) [Coupler Y-5]: in data set [3], the Amplification is recorded as 2600, the “Blue Dmax” value was determined as 1.13, the Drange is reported as 0.94 and the Gamma is on record as 0.76. Besides, the “Rel. Amp.” value in data set [3] is reported as 3.9.
Regarding `CCCCCCCCCCCCNS(=O)(=O)c1ccc(NC(=O)C(OC(=O)N(c2ccc(/C=C(\C#N)c3nc4ccccc4o3)c(C)c2)C2CCCC2)C(=O)c2ccccc2)c(Cl)c1` (stereo not drawn) [Coupler Y-9], in data set [4], the “Blue Dmax” value turned out to be 1.04, the Amplification is 2208, the Drange is given as 0.80 and the Gamma is recorded as 0.51. The “Rel. Amp.” value in data set [4] was determined as 3.5.
